Source: PubChem BioAssay AID1159578 (Peter MacCallum Cancer Centre, 2015)
Aim: 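siRNA pools altering how lymphatic endothelial cells close a scratch wound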 (primary screen). System: human lymphatic endothelial cells. Reagents: siRNA pool against human genes, 40 nM. Timing: 48 h after transfection. Detection: 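Cells stained with dye and imaged after a scratch; covered wound area and nuclei counted, duplicates averaged, migration set against mock wells and turned into a robust z-score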. Reading the numbers: migration robust z-score: higher = faster migration into the scratch; migration relative to mock: higher = more scratch area covered than mock; nuclei per well: higher = more cells in the well. Rule for the call: 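Migration changed when robust z exceeds 2 or falls below -2 and mean nuclei number is at least 3300; otherwise not called changed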. Calls: active = migration changed; inactive = no migration change, or too few cells.
Here is one part, drawn at random, of about 18,000 reagents. Over the whole deposit, about 1,030 (5.7%) got an active call. 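Inactive calls also include pools with fewer than 3300 nuclei, whose migration was not assessed.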 The raw values are shown without normalisation.

Target gene,migration robust z-score,migration class with cell-count check,migration relative to mock,"nuclei per well, duplicate mean",Call
DDHD1 (GeneID 80821),0.16,migration z between -2 and 2; enough cells,0.84,6207,inactive
DAAM2 (GeneID 23500),-0.11,migration z between -2 and 2; enough cells,0.86,5409,inactive
TIGD6 (GeneID 81789),0.18,migration z between -2 and 2; enough cells,0.94,5361,inactive
DESI2 (GeneID 51029),1.69,migration z between -2 and 2; enough cells,1.32,5188,inactive
MDGA1 (GeneID 266727),-0.09,migration z between -2 and 2; enough cells,0.86,5668,inactive
SERTAD3 (GeneID 29946),-0.49,migration z between -2 and 2; enough cells,0.76,5206,inactive
SMURF1 (GeneID 57154),1.19,migration z between -2 and 2; enough cells,1.03,5220,inactive
KRTAP10-8 (GeneID 386681),-1.81,migration z between -2 and 2; enough cells,0.42,5639,inactive
CXCL10 (GeneID 3627),0.88,migration z between -2 and 2; enough cells,1.12,5449,inactive
NENF (GeneID 29937),-0.2,migration z between -2 and 2; enough cells,0.84,6732,inactive
CRYGD (GeneID 1421),0.46,migration z between -2 and 2; enough cells,1,5602,inactive
TACSTD2 (GeneID 4070),0.28,migration z between -2 and 2; enough cells,0.96,4597,inactive
ZBTB20 (GeneID 26137),-0.58,migration z between -2 and 2; enough cells,0.74,4896,inactive
PPM1N (GeneID 147699),-0.64,migration z between -2 and 2; enough cells,0.72,7901,inactive
ABL1 (GeneID 25),-1.42,migration z between -2 and 2; enough cells,0.53,4565,inactive
IL11 (GeneID 3589),0.08,migration z between -2 and 2; enough cells,0.82,5156,inactive
UBXN11 (GeneID 91544),0.28,migration z between -2 and 2; enough cells,0.96,4761,inactive
GNGT1 (GeneID 2792),-0.06,migration z between -2 and 2; enough cells,0.87,5918,inactive
TDRD1 (GeneID 56165),-0.54,migration z between -2 and 2; enough cells,0.74,4540,inactive
ZNF706 (GeneID 51123),-0.68,migration z between -2 and 2; enough cells,0.71,5956,inactive
PFKL (GeneID 5211),1.35,migration z between -2 and 2; enough cells,1.06,6474,inactive
BTG1 (GeneID 694),0.21,migration z between -2 and 2; enough cells,0.84,5702,inactive
AGTR2 (GeneID 186),0.8,migration z between -2 and 2; enough cells,0.96,4290,inactive
HS3ST5 (GeneID 222537),-0.02,migration z between -2 and 2; enough cells,0.8,6074,inactive
USP37 (GeneID 57695),-0.83,migration z between -2 and 2; enough cells,0.64,5588,inactive
CAVIN3 (GeneID 112464),0.3,migration z between -2 and 2; enough cells,0.97,5442,inactive
PIANP (GeneID 196500),0.5,migration z between -2 and 2; enough cells,1.01,5974,inactive
RIPK3 (GeneID 11035),0.9,migration z between -2 and 2; enough cells,0.98,5616,inactive
MGAT1 (GeneID 4245),0.78,migration z between -2 and 2; enough cells,0.96,5460,inactive
CST9 (GeneID 128822),-1.99,migration z between -2 and 2; enough cells,0.37,5206,inactive
MAP2K3 (GeneID 5606),-1.84,migration z between -2 and 2; enough cells,0.45,4469,inactive
TFAP2C (GeneID 7022),-2.75,migration z below -2; enough cells,0.28,3466,active
AJAP1 (GeneID 55966),-1.64,migration z between -2 and 2; enough cells,0.46,6830,inactive
DNAJB1 (GeneID 3337),-0.28,migration z between -2 and 2; enough cells,0.82,4630,inactive
STRBP (GeneID 55342),0.11,migration z between -2 and 2; enough cells,0.91,6286,inactive
ARF3 (GeneID 377),1.84,migration z between -2 and 2; enough cells,1.16,5536,inactive
TJP2 (GeneID 9414),0.65,migration z between -2 and 2; enough cells,0.93,5120,inactive
ADH7 (GeneID 131),-2.59,under 3300 nuclei; migration not judged,0.3,2794,inactive
NFKBID (GeneID 84807),0.17,migration z between -2 and 2; enough cells,0.93,5340,inactive

Looked up above.
CAVIN3 (GeneID 112464), Call = inactive
Under “migration robust z-score”, AJAP1 (GeneID 55966) shows -1.64
Entry of GNGT1 (GeneID 2792) under “Call”: inactive
Under “migration class with cell-count check”, PFKL (GeneID 5211) shows migration z between -2 and 2; enough cells
